The text below walks through data of PubChem BioAssay AID662 (National Center for Advancing Translational Sciences (NCATS), 2007).

Molecules are shown by their SMILES. Some of the results follow. The main result of the screen is listed elsewhere. These columns were measured beside it and carry no call. Most of these compounds were active or inconclusive in the main read-out, so they are no random draw. The note in brackets gives the kind of curve behind each potency; many fits are weak.

A short description of the assay: Cell signaling CRE-BLA (Fsk stim). As to conditions: CHO CRE-bla reporter (cAMP response element driving beta-lactamase), forskolin EC10, beta-lactamase ratio; measured here: 460 nm blue channel. An outline of the steps: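 Modulation of forskolin signalling: compounds in titration series added with EC10 NKH 477 to CHO cells carrying a CRE-driven beta-lactamase reporter, 3 h, 37C. CCF4 FRET ratio (460/530 nm, ex 405 nm) gives %activity and AC50.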
In general, AC50 refers to the concentration at which the activity in the assay is half-maximal. Regarding `COc1ccc(C(=O)CSc2ncn[nH]2)cc1OC`, the concentration at half-maximal activity (AC50) was 12.6 µM [rising, single point].

As to `Cc1ccc(CSC2=Nc3ccccc3C3=NC(CCC(=O)NCc4ccco4)C(=O)N23)cc1` (configuration not stated), the AC50 was 0.01 µM [rising, full curve].

Take `CCN(c1cccc(C)c1)S(=O)(=O)c1ccc2c(c1)CCN2C(C)=O`: the AC50 is 12.6 µM [rising, single point]. With `CN(C)c1ncc2nc(-c3cc(F)cc(F)c3)c(=O)n(-c3ccccc3)c2n1`, the concentration at half-maximal activity (AC50) was 0.631 µM [rising, full curve]. For the compound `Cc1cc(N2CCC(C(=O)Nc3ccc(F)cc3)CC2)nc(-c2ccccc2)n1`, the AC50 is 0.1 µM [falling, full curve, poor fit]. As for `c1ccc2c(c1)Cc1cc3ccccc3nc1-2`, the AC50 was 12.6 µM [rising, partial curve]. `CCOC(=O)c1cn(-c2ccccc2)nc1-c1ccncc1`: the concentration at half-maximal activity (AC50) is 10 µM [rising, partial curve]. For `CC(C)Cn1cc(C(=O)NCc2cccs2)c2c3ccccc3n(C)c2c1=O`, the AC50 was 0.316 µM [falling, full curve, poor fit].

Regarding `COc1cc(/C=C(/C#N)c2ccc(F)cc2)ccc1OCc1ccc(C(=O)O)o1`, the AC50 is 15.8 µM [falling, single point].

With `CN(C)c1ccc(-c2ccc3ncnc(N4CCNCC4)c3c2)cc1`, the AC50 is 10 µM [rising, partial curve]. On to `CCC1CCCCN1CC(=O)Nc1cc(C)nn1-c1nc(C)cc(C)n1` (configuration not stated), for which the AC50 was 5.01 µM [rising, partial curve]. For `COc1cc2c(cc1OC)C(=O)Cc1ccc3c(c1CN(C)CC2)OCO3`, the AC50 was 31.6 µM [falling, single point]. As to `COc1ccccc1C1C(C(=O)NCc2ccccc2)=C(C)Nc2ncnn21` (configuration not stated), the AC50 is 3.16 µM [falling, partial curve]. The same measure for `CCOC(=O)c1cnc(-n2cc(C)cn2)nc1NCc1ccc2c(c1)OCO2`: 1.58 µM [rising, full curve, poor fit]; for `CCCN1CCN(C(=O)Cn2cccc2C(=O)c2ccccc2)CC1`: 0.0794 µM [falling, full curve, poor fit]; for `COCCNc1ccnc(-c2cccc(NS(C)(=O)=O)c2)n1`: 5.01 µM [falling, single point]. For `COc1cccc(OC(=O)CSc2nnc(-c3ccccc3Br)o2)c1`, the AC50 is 3.98 µM [rising, single point]. Take `Cc1cccc(CNc2ncnc3ccc(-c4cccc(NS(C)(=O)=O)c4)cc23)c1`: the AC50 is 2.51 µM [rising, partial curve]. Turning to `C=CCOC(=O)C(C#N)c1nc2ccccc2nc1N1CCN(Cc2ccc3c(c2)OCO3)CC1` (configuration not stated), the AC50 was 10 µM [rising, partial curve]. On to `C(=N\c1nccs1)/Nc1nccs1`, for which the AC50 is 5.01 µM [falling, single point]. Turning to `Nc1ccc(C(=O)OCCCc2nc3ccccc3[nH]2)cc1`, the AC50 was 12.6 µM [rising, single point]. For the compound `CCCCCCCCCCCCCCCCCC(=O)NC[C@@H](COP(=O)([O-])OCC[N+](C)(C)C)OCC`, the AC50 was 20 µM [falling, partial curve].

On to `COc1ccc(-c2nnc(SCC(=O)OC3CCCCC3)o2)cc1OC`, for which the AC50 is 12.6 µM [rising, single point]. For `Cc1ccc(C(=O)Nc2ccccc2C(=O)NC2CCCCC2)cc1S(=O)(=O)N1CCOCC1`, the half-maximal activity concentration (AC50) is 1.58 µM [rising, partial curve]. As to `COC(=O)[C@@]1(Cc2ccc(F)cc2)[C@H]2c3cc(C(=O)N(C)C)n(CCN4CCOCC4)c3C[C@H]2CN1C(=O)c1ccccc1`, the concentration at half-maximal activity (AC50) was 15.8 µM [rising, partial curve]. As to `CN(C(=O)c1ccc2c(=O)n3c(nc2c1)CCCCC3)c1ccccc1`, the AC50 is 10 µM [rising, partial curve]. As to `c1ccc(-c2nnnn2CCOCCn2nnnc2-c2ccccc2)cc1`, the AC50 was 5.01 µM [falling, single point].

As to `Cc1cc(=O)c2c(O)c(O)ccc2o1`, the AC50 was 25.1 µM [rising, partial curve]. For the compound `COc1ccccc1CNc1ccnc(-c2cccc(C#N)c2)n1`, the half-maximal activity concentration (AC50) is 7.94 µM [rising, partial curve].

With `CCOC(=O)c1c(NC(=O)CSc2nnc(Cc3csc(N)n3)n2C)sc(C)c1C`, the AC50 is 12.6 µM [rising, single point]. In the case of `c1csc(-c2csc3nc(CN4CCOCC4)nc(NCc4ccc5c(c4)OCO5)c23)c1`, the AC50 was 25.1 µM [rising, single point].

On to `COc1cc(-c2nc(-c3ccccn3)no2)cc(OC)c1OC`, for which the AC50 is 1.58 µM [rising, partial curve]. The same measure for `Cc1cccc2nc(CSc3nncn3-c3ccccc3)cn12`: 10 µM [rising, partial curve].

Take `CC(C)Cc1nnc(NC(=O)CCN2C(=O)c3ccccc3C2=O)s1`: the AC50 is 10 µM [rising, partial curve].

Turning to `O=C(c1ccc(Cl)cc1)N1CCN(C(=O)c2ccco2)CC1`, the AC50 is 5.01 µM [rising, single point]. The same measure for `COc1c(O)cc2oc3cc(O)c(CC=C(C)C)c(O)c3c(=O)c2c1CC=C(C)C`: 31.6 µM [falling, single point]. On to `O=C(Nc1ccc2c(c1)OCCO2)c1ccc(Br)c(S(=O)(=O)N2CCOCC2)c1`, for which the AC50 is 1 µM [falling, partial curve, poor fit].

In the case of `CCCn1c(=S)[nH]c2cc(C(=O)N3CCCC(C(=O)OCC)C3)ccc2c1=O` (configuration not stated), the AC50 was 10 µM [rising, partial curve]. For `CCCCNC(=O)C(c1ccc(OCC(=O)OC)c(C(=O)OC)c1)N(Cc1ccccn1)C(=O)CCCCCN1C(=O)NC(c2ccc(-c3ccccc3)cc2)C(C(=O)OCc2ccccc2)=C1C` (configuration not stated), the AC50 is 3.16 µM [rising, single point]. In the case of `COc1cccc(Nc2cc(C)nc3nc(C)nn23)c1`, the AC50 was 10 µM [rising, partial curve].

Consider `CCOC(=O)C1CCCN(C(=O)c2cc(=O)c3ccccc3o2)C1` (configuration not stated), for which the AC50 was 5.01 µM [falling, single point].

Turning to `COc1ccc2c(c1)c1nnc(SCC(=O)N3CCCCC3C)nc1n2C` (configuration not stated), the AC50 is 1.26 µM [rising, full curve].
